Here are results for one molecule from paper doi:10.1101/2022.10.16.511936.

Results are given in words; binding and its absence hold for the method and conditions named. Binding can be weak; no strength is given.

This assay deals with N-terminal part of AtEH1/Pan1 (AA 1-527) in pGBKT7 (Arabidopsis). Briefly: two-hybrid.

B1: cytoplasmic part of CLV1 (AA 671-980) in pGADT7 (domain or fragment, UniProt Q9SYQ8 671-980)
chain: LAWKLTAFQKLDFKSEDVLECLKEENIIGKGGAGIVYRGSMPNNVDVAIKRLVGRGTGRSDHGFTAEIQTLGRIRHRHIVRLLGYVANKDTNLLLYEYMPNGSLGELLHGSKGGHLQWETRHRVAVEAAKGLCYLHHDCSPLILHRDVKSNNILLDSDFEAHVADFGLAKFLVDGAASECMSSIAGSYGYIAPEYAYTLKVDEKSDVYSFGVVLLELIAGKKPVGEFGEGVDIVRWVRNTEEEITQPSDAAIVVAIVDPRLTGYPLTSVIHVFKIAMMCVEEEAAARPTMREVVHMLTNPPKSVANLIAF
B1: the binding result is recorded as “binds”.
